Test results published in patent US5550124A, “Use of peripheral-type benzodiazpine sites for treatment of CNS trauma or disease” (priority 1991, dated 1996).

Test: Physical trauma (head injury) model, grip score 18 hours post-injury
Format: in vivo, mice (male CF-1)
Conditions: grip score 18 h post trauma, FIGS. 1-8
Source text: Two tests which can be readily performed are observation of grip score and observation of grip time in injured test animals. Another test for agonist activity is for decrease in mortality caused by the CNS injury. Mice can be treated to simulate CNS injury by a variety of methods: they can be deprived of oxygen by administration of KCN (Nauquier, A., et al., Arch. Int. Pharmacodyn., 249:330 (1981)) or by temporary tying-off of the carotid artery (Braughler, J. M. and Lainer, M. J., "The effects of large doses of methylprednisolone on neurologic recovery and survival in the Mongolian gerbil following three hours of unilateral carotid occlusion," CNS Trauma, 3:153-162 (1986)). Alternatively, blows can be administered to the head or the spinal cord of the test animal.
The following protocol was used: […]
Immediately following injury, the mouse was placed under a heat lamp. […] The time of injury and the time of injection were recorded. […]
Each mouse was evaluated 18 hours post-injury for neurological deficit. […]
Each mouse was picked up by the tail and placed on the string. […] Grip score was recorded based on the mouse's performance while on the string. […]
C) Statistical Analysis Results of the above test were analyzed for statistical significance using the Mann-Whitney U test. […]

For CN1C(=O)CN=C(c2ccccc2)c2cc(Cl)ccc21 [Diazepam, 7-Chloro-1,3-dihydro-1-methyl-5-phenyl-2H-1,4-benzodiazepin-2-one], the “effectiveness in treatment of CNS trauma/damage (in words)” value was “effective”.
